Test results published in patent publication US20090170711.
The exact form of at least one protein or probe is not confirmed.

Chains of the proteins cited; added tags and fusions are not shown. Lines headed by an entry give the natural chain unless they say otherwise; changes in a name come on top.
UniProt Q04609: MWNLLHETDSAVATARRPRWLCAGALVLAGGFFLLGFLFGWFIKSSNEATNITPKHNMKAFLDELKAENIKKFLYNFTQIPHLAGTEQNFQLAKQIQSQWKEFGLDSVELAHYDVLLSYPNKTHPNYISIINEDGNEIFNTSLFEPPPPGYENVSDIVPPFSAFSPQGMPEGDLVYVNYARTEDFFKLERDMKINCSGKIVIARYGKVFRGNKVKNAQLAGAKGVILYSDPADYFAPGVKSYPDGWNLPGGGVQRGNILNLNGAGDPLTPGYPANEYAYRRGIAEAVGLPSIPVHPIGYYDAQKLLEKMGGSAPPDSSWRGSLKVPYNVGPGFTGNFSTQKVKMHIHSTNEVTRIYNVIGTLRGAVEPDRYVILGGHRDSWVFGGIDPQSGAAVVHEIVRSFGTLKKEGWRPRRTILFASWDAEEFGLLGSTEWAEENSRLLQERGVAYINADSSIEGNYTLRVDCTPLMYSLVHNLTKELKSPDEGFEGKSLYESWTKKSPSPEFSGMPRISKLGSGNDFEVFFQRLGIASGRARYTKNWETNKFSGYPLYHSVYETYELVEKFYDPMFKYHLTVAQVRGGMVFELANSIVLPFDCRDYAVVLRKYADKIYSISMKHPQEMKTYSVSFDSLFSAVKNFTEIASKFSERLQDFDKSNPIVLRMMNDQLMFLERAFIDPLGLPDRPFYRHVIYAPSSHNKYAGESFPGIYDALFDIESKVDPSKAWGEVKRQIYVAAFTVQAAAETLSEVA

Biological target: PSMA (prostate-specific membrane antigen, on LnCap cells) (UniProt Q04609)
Experiment: activity in cells
Conditions: 2'-F C and U (2'-fluoro-CTP/UTP transcription); binding and internalization in LnCap cells by RT-qPCR; signal reduced by Riboshredder, abolished by azide/deoxyglucose plus Riboshredder; protein on the cell surface; protein details: endogenous on LnCap cells (ATCC); dose not given here

GGGAGGACGAUGCGGACCGAAAAAGACCUGACUUCUAUACUAAGUCUACGUUCCCAGACGACUCGCCCGA [A9 anti-PSMA aptamer]
functional effect of the aptamer: active
